Reference: patent US20040175375A1 (SEOUL NATIONAL UNIVERSITY INDUSTRY FOUNDATION, published 2004)

Molecular target: T1, LexA-(p38/JTV-1) (human, UniProt Q13155 1-312, limits assumed)
T1 construct: Yeast two-hybrid bait expressed in S. cerevisiae EGY48; also called fusion protein of p38/JTV-1 and LexA; pLexA-(p38/JTV-1); not shown: LexA protein encoded by pLex202 vector (Invitrogen)
T1 sequence: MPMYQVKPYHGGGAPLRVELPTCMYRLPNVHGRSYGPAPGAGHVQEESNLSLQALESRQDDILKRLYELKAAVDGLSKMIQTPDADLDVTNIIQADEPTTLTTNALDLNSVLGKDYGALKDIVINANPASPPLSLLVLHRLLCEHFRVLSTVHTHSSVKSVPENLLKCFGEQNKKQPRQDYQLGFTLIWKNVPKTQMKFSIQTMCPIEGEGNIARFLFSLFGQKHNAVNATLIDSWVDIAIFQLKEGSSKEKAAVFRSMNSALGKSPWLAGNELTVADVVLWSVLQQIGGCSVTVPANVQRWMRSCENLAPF
Assay: yeast two-hybrid (LexA system), blue colony on X-gal
Description: Using the recombinant plasmids constructed in the above, Saccaromyces cerevisiae EGY48 (Clontech laboratories Inc. Estojak et al. (1995)) having a lacZ plasmid (p8op-LacZ) as a probe gene was transformed according to the known methods (Golemis, E. A., et al., In Current Protocols in Molecular Biology, 1994).

B1: B42-FBP (FUSE-binding protein, amino acids 564 to 645) (other, human, UniProt Q96AE4 564-644, looked up)
chain: QTNGQGDQQNPAPAGQVDYTKAWEEYYKKMGQAVPAPTGAPPGGQPDYSAAWAEYYRQQAAYYAQTSPQGMPQHPPAPQGQ
notes: range 564-645; Yeast two-hybrid prey; also called pB42-FBP; not shown: B42 protein from pB42 vector (Invitrogen)
**Q.** Does B1 bind?
**A.** binds
